Test [1] addresses T1, CD81, tetraspanin trans-membrane protein (mouse (endogenous in mouse CD19+ B cells)) (UniProt P35762).
T1 sequence: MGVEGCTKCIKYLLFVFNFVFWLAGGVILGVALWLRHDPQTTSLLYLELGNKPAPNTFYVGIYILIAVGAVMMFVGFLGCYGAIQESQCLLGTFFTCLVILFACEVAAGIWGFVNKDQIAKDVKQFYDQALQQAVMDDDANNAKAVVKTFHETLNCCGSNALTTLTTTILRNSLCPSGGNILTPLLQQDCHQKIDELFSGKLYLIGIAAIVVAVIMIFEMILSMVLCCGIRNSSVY
The test is described as follows: proximity ligation; Duolink PLA on activated B cells (i35-Bregs) fixed and adhered to glass slides; rabbit anti-CD81 + mouse anti-p35 or anti-Ebi3; signal means the two are within <40 nm.

Test [2] addresses T1, CD81, tetraspanin trans-membrane protein (mouse (endogenous in mouse CD19+ B cells)). The test is described as follows: co-IP; particulate (100,000 xg) fraction of i35-Breg culture supernatant (i35-exosomes) resuspended in PBS; immunoprecipitation with anti-CD81, Western blot for p35 or Ebi3.

No constants are given. Whether binding was seen depends on the method and setting. Binding seen in cells or lysates may run through a third protein. Some results given as binding are weak or reduced against the parent protein; the word gives no strength.

B1: Epstein-Barr virus induced gene 3 (Ebi3) subunit of IL-35 (protein, UniProt O35228 19-228)
chain: YTETALVALSQPRVQCHASRYPVAVDCSWTPLQAPNSTRSTSFIATYRLGVATQQQSQPCLQRSPQASRCTIPDVHLFSTVPYMLNVTAVHPGGASSSLLAFVAERIIKPDPPEGVRLRTAGQRLQVLWHPPASWPFPDIFSLKYRLRYRRRGASHFRQVGPIEATTFTLRNSKPHAKYCIQVSAQDLTDYGKPSDWSLPGQVESAPHKP
Turning to B1, the binding result was “binds weakly” in test [1] and “binds” in test [2].

B2: IL-12p35 (p35) subunit of IL-35 (protein, UniProt P43431 23-215)
chain: RVIPVSGPARCLSQSRNLLKTTDDMVKTAREKLKHYSCTAEDIDHEDITRDQTSTLKTCLPLELHKNESCLATRETSSTTRGSCLPPQKTSLMMTLCLGSIYEDLKMYQTEFQAINAALQNHNHQQIILDKGMLVAIDELMQSLNHNGETLRQKPPVGEADPYRVKMKLCILLHAFSTRVVTINRVMGYLSSA
Regarding B2, the binding entry in test [1] and in test [2] was “binds” in each case.

Values taken from publication PMC11905137.
